Laboratory results from paper PMC5323174.
No constants are given. Whether binding was seen depends on the method and setting. Binding seen in cells or lysates may run through a third protein. Some results given as binding are weak or reduced against the parent protein; the word gives no strength.

Sequences of proteins named here, by UniProt entry; tags and fusion partners are left off.
UniProt Q92793: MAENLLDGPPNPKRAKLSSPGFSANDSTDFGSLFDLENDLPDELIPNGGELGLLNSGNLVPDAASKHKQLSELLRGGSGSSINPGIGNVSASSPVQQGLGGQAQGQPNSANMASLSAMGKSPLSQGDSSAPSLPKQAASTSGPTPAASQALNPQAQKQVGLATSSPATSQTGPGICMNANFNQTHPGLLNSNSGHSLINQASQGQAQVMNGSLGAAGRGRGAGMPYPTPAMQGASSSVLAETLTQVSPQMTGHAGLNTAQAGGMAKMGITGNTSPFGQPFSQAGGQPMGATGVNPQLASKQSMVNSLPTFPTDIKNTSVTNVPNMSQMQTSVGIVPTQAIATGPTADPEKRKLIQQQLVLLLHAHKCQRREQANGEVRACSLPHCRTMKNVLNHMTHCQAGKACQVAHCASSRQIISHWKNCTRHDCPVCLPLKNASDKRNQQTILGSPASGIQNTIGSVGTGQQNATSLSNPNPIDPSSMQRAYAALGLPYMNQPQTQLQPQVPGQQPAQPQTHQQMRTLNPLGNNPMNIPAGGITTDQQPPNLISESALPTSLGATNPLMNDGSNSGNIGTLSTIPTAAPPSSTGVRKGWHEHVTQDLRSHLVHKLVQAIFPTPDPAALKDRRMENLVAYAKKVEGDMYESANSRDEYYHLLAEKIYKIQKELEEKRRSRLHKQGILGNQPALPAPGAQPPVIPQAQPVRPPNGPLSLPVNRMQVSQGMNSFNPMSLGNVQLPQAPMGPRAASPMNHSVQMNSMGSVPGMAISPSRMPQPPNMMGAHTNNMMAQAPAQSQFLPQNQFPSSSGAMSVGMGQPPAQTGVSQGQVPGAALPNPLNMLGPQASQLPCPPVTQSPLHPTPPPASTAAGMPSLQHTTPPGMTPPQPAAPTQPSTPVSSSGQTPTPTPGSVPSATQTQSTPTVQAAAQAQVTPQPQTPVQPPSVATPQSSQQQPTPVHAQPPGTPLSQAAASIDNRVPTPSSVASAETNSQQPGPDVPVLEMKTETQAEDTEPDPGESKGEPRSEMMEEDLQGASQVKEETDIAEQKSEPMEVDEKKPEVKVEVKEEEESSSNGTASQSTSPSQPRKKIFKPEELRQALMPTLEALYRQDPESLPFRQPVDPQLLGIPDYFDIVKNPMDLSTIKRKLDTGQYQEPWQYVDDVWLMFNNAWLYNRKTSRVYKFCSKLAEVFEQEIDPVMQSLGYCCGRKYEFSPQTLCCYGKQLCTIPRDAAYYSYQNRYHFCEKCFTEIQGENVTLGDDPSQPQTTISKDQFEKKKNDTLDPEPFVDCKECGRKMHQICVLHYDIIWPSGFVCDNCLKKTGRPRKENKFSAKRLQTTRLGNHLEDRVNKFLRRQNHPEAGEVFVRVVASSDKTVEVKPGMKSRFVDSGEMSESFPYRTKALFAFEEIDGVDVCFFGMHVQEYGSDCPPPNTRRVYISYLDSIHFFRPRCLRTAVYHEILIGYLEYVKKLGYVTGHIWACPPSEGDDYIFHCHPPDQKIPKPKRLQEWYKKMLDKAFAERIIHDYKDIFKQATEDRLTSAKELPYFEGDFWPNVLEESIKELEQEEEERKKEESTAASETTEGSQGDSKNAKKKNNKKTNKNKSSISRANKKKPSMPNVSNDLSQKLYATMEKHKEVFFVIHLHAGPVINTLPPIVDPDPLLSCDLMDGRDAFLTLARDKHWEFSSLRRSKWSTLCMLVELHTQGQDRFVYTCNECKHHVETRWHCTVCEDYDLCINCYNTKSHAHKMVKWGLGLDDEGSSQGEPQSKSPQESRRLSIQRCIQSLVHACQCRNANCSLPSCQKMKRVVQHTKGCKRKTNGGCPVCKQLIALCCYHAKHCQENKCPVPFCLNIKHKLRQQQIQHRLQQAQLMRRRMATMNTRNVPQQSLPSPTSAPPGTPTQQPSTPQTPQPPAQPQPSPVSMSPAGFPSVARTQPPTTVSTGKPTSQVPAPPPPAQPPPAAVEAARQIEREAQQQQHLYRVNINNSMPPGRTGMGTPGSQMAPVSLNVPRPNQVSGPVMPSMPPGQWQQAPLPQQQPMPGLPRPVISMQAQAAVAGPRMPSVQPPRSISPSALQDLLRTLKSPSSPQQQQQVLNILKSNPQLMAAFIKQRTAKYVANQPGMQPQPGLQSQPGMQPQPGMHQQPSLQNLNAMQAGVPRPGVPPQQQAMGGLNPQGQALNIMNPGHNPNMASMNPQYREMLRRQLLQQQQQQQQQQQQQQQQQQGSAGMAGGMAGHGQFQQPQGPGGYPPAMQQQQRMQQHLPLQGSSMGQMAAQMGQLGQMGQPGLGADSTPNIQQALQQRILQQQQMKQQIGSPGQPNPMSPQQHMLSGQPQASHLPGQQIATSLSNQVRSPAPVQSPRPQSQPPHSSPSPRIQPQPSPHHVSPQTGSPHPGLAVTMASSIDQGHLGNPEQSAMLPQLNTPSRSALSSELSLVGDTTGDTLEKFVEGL
UniProt Q15291: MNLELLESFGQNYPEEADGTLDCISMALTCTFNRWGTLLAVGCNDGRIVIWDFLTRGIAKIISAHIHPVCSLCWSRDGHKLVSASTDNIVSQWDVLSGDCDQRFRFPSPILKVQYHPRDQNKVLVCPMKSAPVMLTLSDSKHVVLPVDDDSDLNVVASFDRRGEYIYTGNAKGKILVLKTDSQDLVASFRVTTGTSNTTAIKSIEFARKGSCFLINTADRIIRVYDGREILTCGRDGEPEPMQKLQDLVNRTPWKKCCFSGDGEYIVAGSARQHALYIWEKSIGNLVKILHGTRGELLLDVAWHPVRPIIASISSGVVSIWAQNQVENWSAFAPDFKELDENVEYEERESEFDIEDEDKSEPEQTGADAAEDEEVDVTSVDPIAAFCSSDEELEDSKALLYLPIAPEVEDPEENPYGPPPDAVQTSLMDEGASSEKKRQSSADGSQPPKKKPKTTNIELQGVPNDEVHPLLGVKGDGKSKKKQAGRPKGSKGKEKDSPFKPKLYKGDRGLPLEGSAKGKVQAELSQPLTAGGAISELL

Target: CBP (CREBBP, CREB binding protein) (human (endogenous in DU145)) (UniProt Q92793)
Assay: co-IP; antibodies (5 ug/reaction) coupled to Protein A/G magnetic beads and cross-linked with DSS; lysate from 4,000,000 DU145 cells incubated with TGF-b1 for 24 h; 2 h at room temperature; low pH elution; Western blot; isotype IgG as negative control

binding: binds
Substance: RbBP5 (Retinoblastoma Binding Protein 5) (from UniProt Q15291 1-538)
